Source: PubChem BioAssay AID1259308 (NCATS, 2017)
Test: 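Genes whose loss raises luciferase production in HEK293 cells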 (primary screen). System: human HEK293 embryonic kidney cells stably expressing firefly luciferase (HEK-CMV-Luc2-Hygro). Reagent: single siRNA against human genes, 0.8 pmol siRNA per well. Time to read-out: 72 h. Detection: 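Luciferase light (ONE-Glo) measured on one replicate plate set and viability (CellTiter-Glo) on the other, scaled to a negative control siRNA, with robust z-scores and luciferase per cell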. Scale: total luciferase, z-score and total luciferase, % of control: higher = more reporter protein produced. Call rule: 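An siRNA counts as active if its total luciferase robust z-score exceeds 3; genes with two or more such siRNAs out of three were retested with fresh siRNAs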. Meaning of the calls: active = raised luciferase; inactive = no rise.
The deposit covers about 59,000 reagents; this is an unselected part. Of all reagents, about 1,510 (2.6%) are marked active. 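Calls use total luciferase alone and ignore viability, so some active siRNAs may act by altering cell number.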 A number with no mark means an inactive call. Reagents against one gene are numbered here. Further read-outs or replicates are left out here. Reagent sequences are not shown.

target | siRNA no. | total luciferase, z-score | total luciferase, % of control
POLR3E (GeneID 55718) | 1 | -0.521 | 71.5
POLR3E (GeneID 55718) | 2 | 0.439 | 90.6
POLR3E (GeneID 55718) | 3 | -0.929 | 63.4
PDSS2 (GeneID 57107) | 1 | -0.0846 | 80.2
PDSS2 (GeneID 57107) | 2 | 0.344 | 88.7
PDSS2 (GeneID 57107) | 3 | 0.393 | 89.7
POFUT2 (GeneID 23275) | 1 | 0.989 | 102
POFUT2 (GeneID 23275) | 2 | 0.588 | 93.6
POFUT2 (GeneID 23275) | 3 | 0.504 | 91.9
KIAA1586 (GeneID 57691) | 1 | 0.115 | 84.2
KIAA1586 (GeneID 57691) | 2 | 0.835 | 98.5
KIAA1586 (GeneID 57691) | 3 | -0.995 | 62.1
DMRTB1 (GeneID 63948) | 1 | 0.288 | 87.6
DMRTB1 (GeneID 63948) | 2 | -0.0387 | 81.1
DMRTB1 (GeneID 63948) | 3 | -2.02 | 41.7
KANSL1L (GeneID 151050) | 1 | 1.01 | 102
KANSL1L (GeneID 151050) | 2 | 0.812 | 98
KANSL1L (GeneID 151050) | 3 | -0.779 | 66.4
CATSPER3 (GeneID 347732) | 1 | 0.699 | 95.8
CATSPER3 (GeneID 347732) | 2 | 1.68 | 115
CATSPER3 (GeneID 347732) | 3 | -0.475 | 72.4
MYOC (GeneID 4653) | 1 | -0.949 | 63
MYOC (GeneID 4653) | 2 | -0.0918 | 80.1
MYOC (GeneID 4653) | 3 | -0.835 | 65.3

2 entries from above, set out differently.
PDSS2 (GeneID 57107) #2
- total luciferase, z-score: 0.344
- total luciferase, % of control: 88.7

PDSS2 (GeneID 57107) #3
- total luciferase, z-score: 0.393
- total luciferase, % of control: 89.7
